Earlier results, collected in US20260137638A1, “STAT3 INHIBITORS FOR USE IN THE TREATMENT OF NON-VIRAL LIVER CANCER” (Tyardi Operating Company, Inc., priority 2022, published 2026).
Some of these results come from one statement about several compounds together.

Conditions: first-line therapy; cited from earlier work

For `CNC(=O)c1cc(Oc2ccc(NC(=O)Nc3ccc(Cl)c(C(F)(F)F)c3)cc2)ccn1` [sorafenib], the “treatment-related grade 3-5 adverse events, patients” value is listed as “more than 45%”.
